This note sets out measurements from publication doi:10.1101/2022.12.25.521893 (bioRxiv, 2022).

Sequences of proteins named here, by UniProt entry; tags and fusion partners are left off. A change or cut given only in a name is not applied to a line headed by its entry. Residues count along the entry.
UniProt Q9I5U2, residues 34-924: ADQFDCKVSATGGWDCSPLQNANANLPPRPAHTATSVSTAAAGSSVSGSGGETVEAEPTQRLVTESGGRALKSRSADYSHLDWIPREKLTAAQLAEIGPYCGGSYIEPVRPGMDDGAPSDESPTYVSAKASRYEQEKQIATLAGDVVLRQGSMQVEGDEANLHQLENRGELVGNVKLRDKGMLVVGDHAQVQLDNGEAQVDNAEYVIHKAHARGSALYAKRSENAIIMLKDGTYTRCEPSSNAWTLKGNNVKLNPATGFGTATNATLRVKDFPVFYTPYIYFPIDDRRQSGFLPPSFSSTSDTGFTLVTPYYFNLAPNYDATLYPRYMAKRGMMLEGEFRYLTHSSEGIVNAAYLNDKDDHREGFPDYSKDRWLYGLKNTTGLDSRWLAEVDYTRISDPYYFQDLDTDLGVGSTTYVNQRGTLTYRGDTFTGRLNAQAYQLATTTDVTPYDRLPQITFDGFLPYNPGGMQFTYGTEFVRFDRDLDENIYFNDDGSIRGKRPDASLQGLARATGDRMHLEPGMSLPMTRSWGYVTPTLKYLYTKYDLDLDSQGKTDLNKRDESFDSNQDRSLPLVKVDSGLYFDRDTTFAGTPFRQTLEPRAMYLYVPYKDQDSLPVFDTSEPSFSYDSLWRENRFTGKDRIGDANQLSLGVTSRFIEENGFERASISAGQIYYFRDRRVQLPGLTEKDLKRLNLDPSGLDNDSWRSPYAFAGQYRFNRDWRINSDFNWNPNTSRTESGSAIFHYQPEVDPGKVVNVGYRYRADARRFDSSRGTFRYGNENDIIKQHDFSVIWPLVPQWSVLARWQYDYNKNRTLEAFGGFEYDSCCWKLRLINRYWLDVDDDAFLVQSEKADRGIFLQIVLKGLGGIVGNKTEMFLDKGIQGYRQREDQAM
UniProt Q83SQ0: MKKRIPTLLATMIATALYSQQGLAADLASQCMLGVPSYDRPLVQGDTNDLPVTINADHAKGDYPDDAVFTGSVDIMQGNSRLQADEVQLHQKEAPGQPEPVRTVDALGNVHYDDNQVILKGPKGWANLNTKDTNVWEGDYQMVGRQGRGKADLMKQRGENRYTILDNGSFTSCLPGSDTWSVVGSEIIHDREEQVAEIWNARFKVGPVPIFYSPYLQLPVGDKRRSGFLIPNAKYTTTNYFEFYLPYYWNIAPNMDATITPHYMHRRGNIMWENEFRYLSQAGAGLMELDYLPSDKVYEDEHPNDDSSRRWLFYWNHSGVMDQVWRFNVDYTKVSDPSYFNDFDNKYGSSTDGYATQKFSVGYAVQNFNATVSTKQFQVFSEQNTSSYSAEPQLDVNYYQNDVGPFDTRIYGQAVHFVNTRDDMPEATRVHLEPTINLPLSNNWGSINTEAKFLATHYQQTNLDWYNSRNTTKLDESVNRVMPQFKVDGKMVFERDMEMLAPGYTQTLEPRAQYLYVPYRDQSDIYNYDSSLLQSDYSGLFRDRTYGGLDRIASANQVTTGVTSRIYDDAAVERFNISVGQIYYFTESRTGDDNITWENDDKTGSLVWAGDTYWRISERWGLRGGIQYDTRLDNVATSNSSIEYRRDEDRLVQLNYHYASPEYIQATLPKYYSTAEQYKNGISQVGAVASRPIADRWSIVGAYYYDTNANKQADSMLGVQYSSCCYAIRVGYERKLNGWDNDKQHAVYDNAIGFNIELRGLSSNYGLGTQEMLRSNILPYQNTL

No constants are given. Whether binding was seen depends on the method and setting. For part of these data: In cells and extracts the contact can be indirect. Some binding calls cover weakened binding; strength is not graded here. For part of these data: Sequences can lack the tags named with a protein.

First the molecules themselves.
B1: endogenous Escherichia coli lipoprotein YifL (peptide, UniProt P0ADN6 20-67)
chain: CGLKGPLYFPPADKNAPPPTKPVETQTQSTVPDKNDRATGDGPSQVNY
modifications: three acyl chains (R1, R2, R3) on the N-terminal Cys of the mature lipoprotein
B2: endogenous E. coli lipoprotein YedD (natural protein)
chain: CAEVENYNNVVKTPAPDWLAGYWQTKGPQRALVSPEAIGSLIVTKEGDTLDCRQWQRVIAVPGKLTLMSDDLTNVTVKRELYEVERDGNTIEYDGMTMERVDRPTAECAAALDKAPLPTPLP
B3: Slp with a C-terminal Strep tag II (protein, UniProt P37194 19-188)
chain: CSSIPQNIKGNNQPDIQKSFVAVHNQPGLYVGQQARFGGKVINVINGKTDTLLEISVLPLDSYAKPDIEANYQGRLLARQSGFLDPVNYRNHFVTILGTIQGEQPGFINKVPYNFLEVNMQGIQVWHLREVVNTTYNLWDYGYGAFWPEPGWGAPYYTNAVSQVTPELVK
B4: Lpp with a C-terminal Strep tag II (protein, UniProt P69776 21-78)
chain: CSSNAKIDQLSSDVQTLNAKVDQLSNDVNAMRSDVQAAKDDAARANQRLDNMATKYRK
B5: YbjP with a C-terminal Strep tag II (protein, UniProt P75818 19-171)
chain: CTTVTPAYKDNGTRSGPCVEGGPDNVAQQFYDYRILHRSNDITALRPYLSDKLATLLSDASRDNNHRELLTNDPFSSRTTLPDSAHVASASTIPNRDARNIPLRVDLKQGDQGWQDEVLMIQEGQCWVIDDVRYLGGSVHATAGTLRQSIENR
B6: Blc with a C-terminal Strep tag II (protein, UniProt P0A901 19-177)
chain: CSSPTPPRGVTVVNNFDAKRYLGTWYEIARFDHRFERGLEKVTATYSLRDDGGLNVINKGYNPDRGMWQQSEGKAYFTGAPTRAALKVSFFGPFYGGYNVIALDREYRHALVCGPDRDYLWILSRTPTISDEVKQEMLAVATREGFDVSKFIWVQQPGS

The target in the first test is LptD from Pseudomonas aeruginosa (Pseudomonas aeruginosa) (UniProt Q9I5U2). The test can be described thus: crystal structure.
As for B1, the binding result is given as “binds”.

The target of another test is LptDE complex from Shigella flexneri with a hexahistidine tag on LptE (Shigella flexneri) (UniProt Q83SQ0). The test can be described thus: pull-down.
As for B2, the binding result is listed as “binds”.
Still for that read-out and setting: then B3, with “binds”; and B4, with “binds”.
Same read-out and setting: then B5, with “binds”; and B6, with “binds”.
